Melanoma cell counts after drug treatment

Data from the primary screen of doi:10.1371/journal.pone.0140310, rounded.

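The test systems are human melanoma cell lines, treated with two drugs together for 72 h and then stained and imaged. Each value is the count of nuclei relative to DMSO-treated wells, in %, so that 100 equals the control. Every drug was used at one fixed concentration, the lower of two screened (a fifth of the higher). The file gives one value for each pair and line, without errors, so small differences may be noise.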
An unselected part of the screen is shown.
A dash means that no value is listed here.

Drug key:
GW9662, 2000 nM: O=C(Nc1ccccc1)c1cc([N+](=O)[O-])ccc1Cl
vismodegib, 1000 nM: CS(=O)(=O)c1ccc(C(=O)Nc2ccc(Cl)c(-c3ccccn3)c2)c(Cl)c1
CP-690550, 1000 nM: C[C@@H]1CCN(C(=O)CC#N)C[C@@H]1N(C)c1ncnc2[nH]ccc12
PLX4720, 80 nM: CCCS(=O)(=O)Nc1ccc(F)c(C(=O)c2c[nH]c3ncc(Cl)cc23)c1F
FH535, 1000 nM: Cc1cc([N+](=O)[O-])ccc1NS(=O)(=O)c1cc(Cl)ccc1Cl
XAV939, 2000 nM: Oc1nc(-c2ccc(C(F)(F)F)cc2)nc2c1CSCC2
sorafenib, 400 nM: CNC(=O)c1cc(Oc2ccc(NC(=O)Nc3ccc(Cl)c(C(F)(F)F)c3)cc2)ccn1
A-769662, 2000 nM: N#Cc1c(O)c2c(-c3ccc(-c4ccccc4O)cc3)csc2[nH]c1=O
embelin, 1200 nM: CCCCCCCCCCCC1=C(O)C(=O)C=C(O)C1=O
tozasertib, 6 nM: Cc1cc(Nc2cc(N3CCN(C)CC3)nc(Sc3ccc(NC(=O)C4CC4)cc3)n2)n[nH]1
MK-2206, 400 nM: NC1(c2ccc(-c3nc4ccn5c(=O)[nH]nc5c4cc3-c3ccccc3)cc2)CCC1
perifosine, 400 nM: CCCCCCCCCCCCCCCCCCOP(=O)([O-])OC1CC[N+](C)(C)CC1
vincristine, 0.1 nM: CC[C@]1(O)C[C@H]2CN(CCc3c([nH]c4ccccc34)[C@@](C(=O)OC)(c3cc4c(cc3OC)N(C=O)[C@H]3[C@@](O)(C(=O)OC)[C@H](OC(C)=O)[C@]5(CC)C=CCN6CC[C@]43[C@@H]65)C2)C1
bexarotene, 2000 nM: C=C(c1ccc(C(=O)O)cc1)c1cc2c(cc1C)C(C)(C)CCC2(C)C
KU-55933, 1000 nM: O=c1cc(-c2cccc3c2Sc2ccccc2S3)oc(N2CCOCC2)c1
pioglitazone, 2000 nM: CCc1ccc(CCOc2ccc(CC3SC(=O)NC3=O)cc2)nc1 (centres unmarked)
dorsomorphin, 400 nM: c1cc(-c2cnn3cc(-c4ccc(OCCN5CCCCC5)cc4)cnc23)ccn1

Pair	A375	A101D	C32	501mel
GW9662 + perifosine	-	99.6	104	92.4
perifosine + XAV939	-	94.4	105	99.4
embelin + MK-2206	-	97.1	80.1	91.5
MK-2206 + A-769662	-	96.5	91.8	94.4
perifosine + pioglitazone	-	89.5	99.4	61.0
FH535 + tozasertib	-	81.9	92.7	-
pioglitazone + PLX4720	-	86.5	85.7	88.2
KU-55933 + MK-2206	-	92.6	91.9	106
vismodegib + FH535	-	89.7	108	88.5
vincristine + GW9662	-	65.5	86.1	72.8
dorsomorphin + vincristine	-	65.5	70.9	73.5
embelin + vismodegib	-	92.1	79.8	76.8
GW9662 + PLX4720	-	85.4	87.1	108
KU-55933 + sorafenib	-	102	98.8	72.6
tozasertib + KU-55933	-	90.4	103	99.1
embelin + tozasertib	-	95.6	113	123
A-769662 + tozasertib	-	99.7	85.5	108
dorsomorphin + PLX4720	-	95.8	94.1	92.0
tozasertib + dorsomorphin	-	94.6	98.3	84.7
A-769662 + CP-690550	110	100	94.7	93.0
KU-55933 + XAV939	96.9	104	102	135
CP-690550 + KU-55933	93.0	92.6	76.1	117
pioglitazone + vincristine	-	65.8	68.9	57.7
sorafenib + pioglitazone	-	94.5	113	88.7
embelin + CP-690550	92.1	109	91.2	94.4
bexarotene + FH535	-	83.3	106	92.6
pioglitazone + tozasertib	-	89.9	105	97.5
MK-2206 + pioglitazone	-	90.4	89.4	85.2

Some entries from above, unchanged:

Pair,A375,A101D,C32,501mel
sorafenib + pioglitazone,-,94.5,113,88.7
tozasertib + dorsomorphin,-,94.6,98.3,84.7